Data reported in publication PMC6325914.
For at least one entry, the source does not settle the construct or the ends of the probe. A negative result means that nothing was seen under these conditions. Weaker means in comparison with the reference protein, sequence or condition of that experiment.

Amino acid sequences for entries named in this document (tags omitted). A change or cut given only in a name is not applied to a line headed by its entry.
UniProt P17106: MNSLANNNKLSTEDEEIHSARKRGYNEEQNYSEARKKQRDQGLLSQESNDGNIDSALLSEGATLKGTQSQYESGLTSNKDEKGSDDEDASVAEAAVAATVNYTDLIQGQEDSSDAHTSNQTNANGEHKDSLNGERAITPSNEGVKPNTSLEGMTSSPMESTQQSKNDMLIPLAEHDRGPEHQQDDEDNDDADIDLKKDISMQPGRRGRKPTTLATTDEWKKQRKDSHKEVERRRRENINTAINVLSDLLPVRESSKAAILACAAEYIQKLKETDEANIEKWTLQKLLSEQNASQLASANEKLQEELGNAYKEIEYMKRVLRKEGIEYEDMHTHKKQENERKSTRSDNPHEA

Target: Cbf1 (Saccharomyces cerevisiae) (UniProt P17106)
Experiment: EMSA
Details: 0, 3, 6 ng Cbf1; 10 mM Tris pH 7.4, 1 mM EDTA, 50 mM KCl, room temperature 20 min, 20 ul, 2% agarose gel; recombinant protein; protein details: His; probe letters rebuilt from the primers and the genome

Sequence	binding result
GGCCTCGAGCATTTTCTGTCGCTCTTATGATCCGTTGGATTAACGGTCTGAATAGTACCTTACAGTTGCTAACACCTTCCTATACTCAAATCCAGTACTAGCCACTGTAAAATCAGTATTCCAATAGGAAGAAAAAGGGGATCATAACCCGGCTATCGTATCACATGATAGTCACGTGCAGTGATTATCACGTGATCCGAACTGTTGTGAAAAAACGCGACGCGAAAAAAAAAATGCTGGGCTTCAACAGGAAAAAGACCAGGAATGAAAAATAGTTGGAAAGGAAACAACTGTCTTTTCCGGTCATTCCAACAAAGTTGCTAGATCCGCGGAACCATTTTCGTCATTTTTTTTTTTTCACTCTTTTTTCTCATATCGGTGGGCATTGTACCTGATCATGCTAGACAAATAACGTGGGAGGAGGGAGAAAGTATTGGAATCTAGACAAAGATTTTTAAGTTATTTTTCTATTGTTTCCCTCCTTGGCTTGTTGCATCCCGTTTTGTTTTATTTACTTGCTTTTTTTTTTTCTTATTTATTTATTTATTTATTTATTGTTATTTGGCTATTGTATTCCGTGAACCCGTTTTTCTGCTACATCGGCTTTATAATCCGGACCTGATTTAAGTTAAAACTACAGTTTCTTGTTCGTTACCGTTTTTCTGTTCCATACAGATATTTTTGTCGGTTGATCGCTATTGTTTTTATTATTCATACCTCCGGTAAACATTTAGATAGACACAGTATCAATAAACAAGAGCTATGTGGACAAAGCTTGCC (double strand) [LAC1 promoter]	binds
GGCCTCGAGCCTCTTGTCCATTATCTTCGGGATCTTCCTTCACCAAATCGCAAACATCTAAAATGTATTGCCAGTTATCACTTCTCAACTTGGGATCTGTTGCCTTCAACAGTGCATTCCTTATTTTAATCGCAGATGATGACATTTTTGTCAACGGTTTCCTTAGATAGATTTACGCATTGCCTCTGGCATGGCCCCTATATTTAACAGTTAGAATCCATTGCGTTTCATTTATGTAATTCGAATTTCTTAACTAATCACTAATAACGGTAAATGAGGTTAACCATTAGAATAATGTATATAATTACGTACAAAGGCTACCGAAGTTCTGCGGCAGTAATGTAGGGTTTAGCTTTTGAATCAATCTTAGAGCCTGCTATCTTCCTGCACTTGCTGATTCCATAAATATAAACACCTTTCGGCTAGACCGACAAAGGTCGTAGTCGTTTTTCCTTTAGGGTATTATGACCAGGGACACCCCAGTCCGTCAAGACTAATATCGATAGTATATTACAGGTAAATAGAGATCCCTTTTATAGAGAATTTAACGCTTTAAACTTACCTAATGCGTCATCTTCCATTTGAAATCCTTCTTGACCGAGGGCAGCCCAGGGGTAGTGAAAAACGATGAAAAAATTCCATTTTTTTAGCGGGAAAAGCAAATTGCAGCATCAACATTTTACGCGCTATCACTTGACAAACAAGGCAAGGAAAACTGCAGCCCTGTACTAAGAAGGTCAAGATATTTGCCAAACGATTTCGTAAGGTTGTCTCAATTGATCTGACTGCTTGTCTATCTAAAGTGGCAAGGTATATTAGACAGTGTTGAGAGTGAACTCCAAGATACAGAGAAACTGAAGAAATAACGACAACATGACATCAAAGCTTGCC (double strand) [LAG1 promoter]	no binding
GGCCTCGAGGGCAAGCTTGACCTTTACTTTCCTCTCTAAAAGCCGTGTCGCAGTAACTGGTGACGCTAAAGTTCTCCGGCGTTTTTTTATGTATGAGCTGGGCATCAAGAGCTTTTGAGATTTTCCAAGTAGTAACTCATCTTTCTGAGTGTGCTATCAAATACATACTAAGGAGAATAAACTCTTGTTATTACGTATTCTTCATCCTTATGGGTAGAGAGCGCACTGTTTTAGTACATTTTCTAGACGTCGAAACGTAGAGCAATTGTCGATAAAACAAAAAAAAAGTAAGAAGATATATGAATAGGAGCTGTCGCTAGAACTAGTAAGTATATGATGGAGATATAATAAGTGAATTATTCGATATTTAATGAACGTTCTCATTTATTTGGAAGAAATGTTTATCACCAGATGGAGAACCAATGAGCGGCGAGTAACTACGCGAGGAACCCGGACCGCAATAACGATTAAAGAAGGCCCGGAAGGGAGATGCTTAAATGATTATCACTCAGTTAAAAAAGACAAATAAGAAACTATTGAGACTGAACCGTTTTGGTTAATTTCAGGTGGAAACAATTGAAGACGAGCAGTAAACATTATTTTATTTAGTAGTCATGTTGTCAAGAATTGTATCAAAGCTTGCC (double strand) [ATP3* promoter]	binds more weakly
GGCCTCGAGGGCAAGCTTGACCTTTACTTTCCTCTCTAAAAGCCGTGTCGCAGTAACTGGTGACGCTAAAGTTCTCCGGCGTTTTTTTATGTATGAGCTGGGCATCAAGAGCTTTTGAGATTTTCCAAGTAGTAACTCATCTTTCTGAGTGTGCTATCAAATACATACTAAGGAGAATAAACTCTTGTTATTACGTATTCTTCATCCTTATGGGTAGAGAGCGCACTGTTTTAGTACATTTTCTAGACGTCGAAACGTAGAGCAATTGTCGATAAAACAAAAAAAAAGTAAGAAGATATATGAATAGGAGCTGTCGCTAGAACTAGTAAGTATATGATGGAGATATAATAAGTGAATTATTCGATATTTAATGAACGTTCTCATTTATTTGGAAGAAATGTTTATCACGTGATGGAGAACCAATGAGCGGCGAGTAACTACGCGAGGAACCCGGACCGCAATAACGATTAAAGAAGGCCCGGAAGGGAGATGCTTAAATGATTATCACTCAGTTAAAAAAGACAAATAAGAAACTATTGAGACTGAACCGTTTTGGTTAATTTCAGGTGGAAACAATTGAAGACGAGCAGTAAACATTATTTTATTTAGTAGTCATGTTGTCAAGAATTGTATCAAAGCTTGCC (double strand) [ATP3 promoter]	binds
